No constants are given. Whether binding was seen depends on the method and setting. In cells and extracts the contact can be indirect. Binding calls can cover weak binding; strength is not graded here.
How the values were obtained:
Experiment in all cases: co-IP
[1] = target: T1, P450scc, rat testis (rat (endogenous in testis)) (UniProt P14137)
T1 sequence: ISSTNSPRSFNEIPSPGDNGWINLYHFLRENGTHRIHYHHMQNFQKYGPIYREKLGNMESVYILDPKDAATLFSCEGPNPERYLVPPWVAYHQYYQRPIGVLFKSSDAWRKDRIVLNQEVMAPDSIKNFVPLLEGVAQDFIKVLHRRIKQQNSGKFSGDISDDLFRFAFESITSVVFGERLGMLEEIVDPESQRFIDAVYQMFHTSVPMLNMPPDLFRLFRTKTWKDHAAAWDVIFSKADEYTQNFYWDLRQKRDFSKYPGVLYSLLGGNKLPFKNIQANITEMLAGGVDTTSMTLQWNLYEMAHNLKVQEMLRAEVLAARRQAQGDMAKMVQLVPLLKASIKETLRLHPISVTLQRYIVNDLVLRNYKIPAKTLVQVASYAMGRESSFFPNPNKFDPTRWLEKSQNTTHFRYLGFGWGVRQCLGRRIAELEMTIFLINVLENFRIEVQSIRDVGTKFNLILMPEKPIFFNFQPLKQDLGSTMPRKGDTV

[2] = target: T2, SOD2 (MnSOD), rat testis (rat (endogenous in testis)) (UniProt P07895)
T2 sequence: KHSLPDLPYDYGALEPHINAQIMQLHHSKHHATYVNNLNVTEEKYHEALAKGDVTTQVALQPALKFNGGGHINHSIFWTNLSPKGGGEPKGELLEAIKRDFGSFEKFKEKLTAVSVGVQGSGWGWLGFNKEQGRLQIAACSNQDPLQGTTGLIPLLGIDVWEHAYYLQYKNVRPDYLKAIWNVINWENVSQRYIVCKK

[3] = target: T3, P450scc, TM3 mouse Leydig cells (mouse (endogenous in TM3)) (UniProt Q9QZ82)
T3 sequence: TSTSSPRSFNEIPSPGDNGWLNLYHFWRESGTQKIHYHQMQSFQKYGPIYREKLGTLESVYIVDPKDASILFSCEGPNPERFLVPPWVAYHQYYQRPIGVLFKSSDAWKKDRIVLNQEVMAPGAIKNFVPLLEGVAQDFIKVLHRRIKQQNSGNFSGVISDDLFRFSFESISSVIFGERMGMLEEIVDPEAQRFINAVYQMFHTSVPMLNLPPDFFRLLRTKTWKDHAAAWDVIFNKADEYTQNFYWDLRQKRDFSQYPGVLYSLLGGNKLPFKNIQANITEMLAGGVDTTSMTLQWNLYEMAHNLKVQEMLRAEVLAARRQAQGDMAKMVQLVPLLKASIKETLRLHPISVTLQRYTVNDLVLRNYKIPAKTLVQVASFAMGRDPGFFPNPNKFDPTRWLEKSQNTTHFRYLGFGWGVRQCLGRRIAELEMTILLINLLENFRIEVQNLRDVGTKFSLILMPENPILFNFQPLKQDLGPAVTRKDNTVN

With Sirtuin 3 (SIRT3), rat testis (enzyme) the binding [1] was “binds” and the binding [2] was “binds”.
With “Mouse Sirt3 overexpressed from adenovirus (Ad-Sirt3) (enzyme)” the binding [3] was “binds”.

Reference: doi:10.1101/2021.02.22.432399
